Test results reported in article PMC9371921.

Test system: RAD51B + RAD51C + RAD51D + XRCC2
Assay: EMSA
Conditions: 1 mM ATP, 1 mM Mg acetate, EMSA: 1 nM DNA, 20 mM Tris-acetate pH 7.5, 1 mM DTT, 1 mM magnesium acetate, 0.1 mg/ml BSA, 30 min at 37 C, 6% PAGE in 1x TBE at 4 C, recombinant protein, protein details: FLAG,10xHis,none,none, label: 5'-32P on PC210

**Q.** Does “GTAAGTGCCGCGGTGCGGGTGCCAGGGCGTGCCCTTGGGCTCCCCGGGCGCGTACTCCACCTCATGCATC (double strand) [70-mer dsDNA (PC210/PC211)]” bind?
**A.** binds more weakly

The exact form of at least one protein or probe is not confirmed. Weaker means in comparison with the reference protein, sequence or condition of that experiment.
